Measured values taken from patent publication US20200317791A1.
Results are given in words; binding and its absence hold for the method and conditions named. For part of these data: Binding calls can cover weak binding; strength is not graded here.

Tests used:
[1] = target: B61,Bw6_B*40:02 (human); assay: LABScreen beads
[2] = target: B62,Bw6_B*15:01 (human); assay: LABScreen beads
[3] = target: B47,Bw4_B*47:01 (human); assay: LABScreen beads
[4] = target: B63,Bw4_B*15:16 (human); assay: LABScreen beads
[5] = target: B44,Bw4_B*44:03 (human); assay: LABScreen beads
[6] = target: B61,Bw6_B*40:06 (human); assay: LABScreen beads
[7] = target: B35,Bw6_B*35:01 (human); assay: LABScreen beads
[8] = target: B78,Bw6_B*78:01 (human); assay: LABScreen beads
[9] = target: B76,Bw6_B*15:12 (human); assay: LABScreen beads
[10] = target: B57,Bw4_B*57:03 (human); assay: LABScreen beads
[11] = target: B52,Bw4_B*52:01 (human); assay: LABScreen beads
[12] = target: B64,Bw6_B*14:01 (human); assay: LABScreen beads
[13] = target: B57,Bw4_B*57:01 (human); assay: LABScreen beads
[14] = target: B67,Bw6_B*67:01 (human); assay: LABScreen beads
[15] = target: B37,Bw4_B*37:01 (human); assay: LABScreen beads
[16] = target: Cw14_C*14:02 (human); assay: LABScreen beads
[17] = target: Cw8_C*08:01 (human); assay: LABScreen beads
[18] = target: B75,Bw6_B*15:11 (human); assay: LABScreen beads
[19] = target: B45,Bw6_B*45:01 (human); assay: LABScreen beads
[20] = target: B60,Bw6_B*40:01 (human); assay: LABScreen beads
[21] = target: B27,Bw6_B*27:08 (human); assay: LABScreen beads
[22] = target: B41,Bw6_B*41:01 (human); assay: LABScreen beads
[23] = target: B13,Bw4_B*13:02 (human); assay: LABScreen beads
[24] = target: B13,Bw4_B*13:01 (human); assay: LABScreen beads
[25] = target: B55,Bw6_B*55:01 (human); assay: LABScreen beads
[26] = target: B72,Bw6_B*15:03 (human); assay: LABScreen beads
[27] = target: B53,Bw4_B*53:01 (human); assay: LABScreen beads
[28] = target: B38,Bw4_B*38:01 (human); assay: LABScreen beads
[29] = target: Cw10_C*03:02 (human); assay: LABScreen beads
[30] = target: B77,Bw4_B*15:13 (human); assay: LABScreen beads
[31] = target: B51,Bw4_B*51:01 (human); assay: LABScreen beads
[32] = target: Cw16_C*16:01 (human); assay: LABScreen beads
[33] = target: B51,Bw4_B*51:02 (human); assay: LABScreen beads
[34] = target: B56,Bw6_B*56:01 (human); assay: LABScreen beads
[35] = target: B82,Bw6_B*82:01 (human); assay: LABScreen beads
[36] = target: B50,Bw6_B*50:01 (human); assay: LABScreen beads
[37] = target: B75,Bw6_B*15:02 (human); assay: LABScreen beads
[38] = target: B48,Bw6_B*48:01 (human); assay: LABScreen beads
[39] = target: B18,Bw6_B*18:01 (human); assay: LABScreen beads
[40] = target: B59,Bw4_B*59:01 (human); assay: LABScreen beads
[41] = target: B58,Bw4_B*58:01 (human); assay: LABScreen beads
[42] = target: Cw9_C*03:03 (human); assay: LABScreen beads
[43] = target: B81,Bw6_B*81:01 (human); assay: LABScreen beads
[44] = target: B49,Bw4_B*49:01 (human); assay: LABScreen beads
[45] = target: B65,Bw6_B*14:02 (human); assay: LABScreen beads
[46] = target: B42,Bw6_B*42:01 (human); assay: LABScreen beads
[47] = target: B71,Bw6_B*15:10 (human); assay: LABScreen beads
[48] = target: B44,Bw4_B*44:02 (human); assay: LABScreen beads
[49] = target: B54,Bw6_B*54:01 (human); assay: LABScreen beads
[50] = target: B39,Bw6_B*39:01 (human); assay: LABScreen beads
[51] = target: B8,Bw6_B*08:01 (human); assay: LABScreen beads
[52] = target: Cw5_C*05:01 (human); assay: LABScreen beads, 10 µg/ml antibody
[53] = target: Cw4_C*04:01 (human); assay: LABScreen beads, 10 µg/ml antibody
[54] = target: Cw17_C*17:01 (human); assay: LABScreen beads, 10 µg/ml antibody
[55] = target: Cw2_C*02:02 (human); assay: LABScreen beads, 10 µg/ml antibody
[56] = target: Cw15_C*15:02 (human); assay: LABScreen beads, 10 µg/ml antibody
[57] = target: Cw18_C*18:02 (human); assay: LABScreen beads, 10 µg/ml antibody

B1: CW6B238 (antibody, V domains shown)
VH: QVTLKESGPVLVKPTETLTLTCTVSGFSLNNARMGVSWIRQPPGKALEWLAHMFSSDEKFYRTSLKSRLTISKDTSKSQVVLTMTNMDPVDTATYYCARISLYSSGHDTFDLWGQGTMVTVSS
VL: AIQMTQSPSSLSASVGDRVTITCRASQDIRNTLGWYQQKPGKAPNLLIYAASSLQSGVPSRFSGSGSGTDFTLTISSLQPEDFATYYCLQDYDYPLTFGGGTKVEIK
binding [1]: no binding (tested: 10 µg/ml)
binding [2]: no binding (tested: 10 µg/ml)
binding [3]: no binding (tested: 10 µg/ml)
binding [4]: no binding (tested: 10 µg/ml)
binding [5]: no binding (tested: 10 µg/ml)
binding [6]: no binding (tested: 10 µg/ml)
binding [7]: no binding (tested: 10 µg/ml)
binding [8]: no binding (tested: 10 µg/ml)
binding [9]: no binding (tested: 10 µg/ml)
binding [10]: no binding (tested: 10 µg/ml)
binding [11]: no binding (tested: 10 µg/ml)
binding [12]: no binding (tested: 10 µg/ml)
binding [13]: no binding (tested: 10 µg/ml)
binding [14]: no binding (tested: 10 µg/ml)
binding [15]: no binding (tested: 10 µg/ml)
binding [16]: no binding (tested: 10 µg/ml)
binding [17]: no binding (tested: 10 µg/ml)
binding [18]: no binding (tested: 10 µg/ml)
binding [19]: no binding (tested: 10 µg/ml)
binding [20]: no binding (tested: 10 µg/ml)
binding [21]: no binding (tested: 10 µg/ml)
binding [22]: no binding (tested: 10 µg/ml)
binding [23]: no binding (tested: 10 µg/ml)
binding [24]: no binding (tested: 10 µg/ml)
binding [25]: no binding (tested: 10 µg/ml)
binding [26]: no binding (tested: 10 µg/ml)
binding [27]: no binding (tested: 10 µg/ml)
binding [28]: no binding (tested: 10 µg/ml)
binding [29]: no binding (tested: 10 µg/ml)
binding [30]: no binding (tested: 10 µg/ml)
binding [31]: no binding (tested: 10 µg/ml)
binding [32]: no binding (tested: 10 µg/ml)
binding [33]: no binding (tested: 10 µg/ml)
binding [34]: no binding (tested: 10 µg/ml)
binding [35]: no binding (tested: 10 µg/ml)
binding [36]: no binding (tested: 10 µg/ml)
binding [37]: no binding (tested: 10 µg/ml)
binding [38]: no binding (tested: 10 µg/ml)
binding [39]: no binding (tested: 10 µg/ml)
binding [40]: no binding (tested: 10 µg/ml)
binding [41]: no binding (tested: 10 µg/ml)
binding [42]: no binding (tested: 10 µg/ml)
binding [43]: no binding (tested: 10 µg/ml)
binding [44]: no binding (tested: 10 µg/ml)
binding [45]: no binding (tested: 10 µg/ml)
binding [46]: no binding (tested: 10 µg/ml)
binding [47]: no binding (tested: 10 µg/ml)
binding [48]: no binding (tested: 10 µg/ml)
binding [49]: no binding (tested: 10 µg/ml)
binding [50]: no binding (tested: 10 µg/ml)
binding [51]: no binding (tested: 10 µg/ml)
binding [52]: binds
binding [53]: binds
binding [54]: binds
binding [55]: binds
binding [56]: binds
binding [57]: binds
